# From US7041787B2, “Design and use of advanced zinc chelating peptides to regulate matrix metalloproteinases” (Kimberly-Clark Worldwide, Inc., priority 2000, dated 2006)
# Amino acid sequences for entries named in this document (tags omitted). Residues count along the entry.
# UniProt P14780, 107-707 limits assumed: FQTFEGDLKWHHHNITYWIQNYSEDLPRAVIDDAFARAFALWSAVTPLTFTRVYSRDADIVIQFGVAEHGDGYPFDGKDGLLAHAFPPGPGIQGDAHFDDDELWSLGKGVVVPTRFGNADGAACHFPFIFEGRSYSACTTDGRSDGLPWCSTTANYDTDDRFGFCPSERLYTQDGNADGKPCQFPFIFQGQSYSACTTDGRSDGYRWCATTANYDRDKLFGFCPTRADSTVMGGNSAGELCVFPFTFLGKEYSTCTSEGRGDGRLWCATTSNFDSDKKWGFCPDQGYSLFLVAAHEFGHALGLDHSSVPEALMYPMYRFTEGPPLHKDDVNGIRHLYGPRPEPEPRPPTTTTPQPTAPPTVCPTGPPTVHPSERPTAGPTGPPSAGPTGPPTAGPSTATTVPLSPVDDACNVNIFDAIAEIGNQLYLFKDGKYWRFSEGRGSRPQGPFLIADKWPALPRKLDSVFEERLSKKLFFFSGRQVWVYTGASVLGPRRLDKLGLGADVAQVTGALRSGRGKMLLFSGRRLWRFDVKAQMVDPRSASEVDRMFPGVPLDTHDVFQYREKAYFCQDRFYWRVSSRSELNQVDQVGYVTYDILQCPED
# At least one peptide structure holds a part that was inferred or is arguable (an end, a ring closure or a residue). Where a SMILES comes first, the peptide text is derived from it. The star is where a group is joined. X1 = O=C(O)CN(CC(=O)O)c1cc(F)ccc1OCC(=O)*
# Target: T1, MMP-9 (Homo sapiens, UniProt P14780)
# T1 construct: Active MMP-9 enzyme was purchased from Calbiochem; purchased Calbiochem
# Test: FRET substrate peptide cleavage assay with MMP-9
# Format: biochemical
# Protocol: The second assay utilized the technique of fluorescence resonance energy transfer (FRET). The substrate peptide (Calbiochem #444221) comprised seven amino acids, coupled to a carboxyl terminal dinitrophenyl acceptor, and an amino terminal 2-aminobenzo-anthraniloyl (Abz) moiety donor. Cleavage of this substrate by MMP-9 results in the liberation of a fluorescent product (365 nm excitation, 450 nm emission). […] MMP at a concentration of 0.1 μM was mixed with varying amounts of chelating peptide (0, 0.01, 0.02, 0.04, and 0.1 μM) and incubated at 25° C. for 10 minutes to effect binding. The protein mixture was added to the peptide substrate and mixed quickly. Fluorescence intensity as a function of time was measured with a Dynex MFX fluorescence microtiter plate reader. Fluorescence intensity was related back to moles of peptide cleaved by producing a standard curve with an Abz containing non-FRET peptide. Inhibitory constants were derived from the curves and are listed below in Table 2.
smiles,measurement,setting,value
CC(C)C[C@H](NC(=O)[C@H](Cc1c[nH]cn1)NC(=O)[C@@H](NC(=O)[C@H](Cc1c[nH]cn1)NC(=O)[C@@H](NC(=O)COc1ccc(F)cc1N(CC(=O)O)CC(=O)O)C(C)C)[C@@H](C)O)C(=O)N[C@@H](CS)C(=O)N[C@@H](CC(=O)O)C(=O)O [ChePep-5] (X1-VHTHLCD-OH; C-terminus assumed),Regulation of MMP-9 in FRET assay (in words),"ChePep:MMP-9 molar stoichiometries 0.1:1 to 0.3:1, FIGS. 2-5",capable of preventing the hydrolysis of the FRET peptide in a dose dependent manner
same,Regulation of MMP-9 compared with other ChePeps (in words),"FRET assay, comparison of molar stoichiometries",better regulator than the IDA or the PSDE based chelating peptides
